The record followed here is article PMC4621449.

Protein sequences, listed by entry. Tags and fused reporters are not part of them.
UniProt Q8ECH7: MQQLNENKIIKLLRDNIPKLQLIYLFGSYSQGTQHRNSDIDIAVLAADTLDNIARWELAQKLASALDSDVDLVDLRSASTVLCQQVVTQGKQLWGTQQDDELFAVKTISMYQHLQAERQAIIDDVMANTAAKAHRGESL

The target in the test is T1, Toxin SO_3166 with a C-terminal hexahistidine tag (Shewanella oneidensis) (UniProt Q8ECH6).
T1 sequence: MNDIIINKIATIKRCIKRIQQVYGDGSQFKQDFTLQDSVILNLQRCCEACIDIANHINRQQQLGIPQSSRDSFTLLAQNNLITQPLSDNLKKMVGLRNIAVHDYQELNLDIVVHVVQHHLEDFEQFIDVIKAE
The experiment in a line: pull-down; SO_3166-CHis and untagged SO_3165 coexpressed in E. coli BL21 (DE3); lysate in 50 mM monosodium phosphate pH 8.0, 300 mM NaCl, 5 mM imidazole; Ni-NTA agarose beads; Tricine-SDS-PAGE; co-purified band identified by mass spectrometry.

Results are given in words; binding and its absence hold for the method and conditions named. In cells and extracts the contact can be indirect. Some binding calls cover weakened binding; strength is not graded here. Tags and fused reporters may be left off the sequences shown.

Turning to “Untagged antitoxin SO_3165 (from UniProt Q8ECH7 1-139)”, the binding entry is given as “binds”.
